No constants are given. Whether binding was seen depends on the method and setting. In cells and extracts the contact can be indirect. For some assays here: Binding calls can cover weak binding; strength is not graded here. For some assays here: Tags and fused reporters may be left off the sequences shown.
Legend:
Myc-Fbw8 = target: T1, Myc-Fbw8 (UniProt Q8N3Y1); experiment: co-IP; HeLa cells transfected with HA-CUL7, Flag-TBC1D3 and Myc-Fbw8; lysates (200 µg) immunoprecipitated with anti-TBC1D3 (2C7) or anti-Myc antibodies; immunoblot
T1 sequence: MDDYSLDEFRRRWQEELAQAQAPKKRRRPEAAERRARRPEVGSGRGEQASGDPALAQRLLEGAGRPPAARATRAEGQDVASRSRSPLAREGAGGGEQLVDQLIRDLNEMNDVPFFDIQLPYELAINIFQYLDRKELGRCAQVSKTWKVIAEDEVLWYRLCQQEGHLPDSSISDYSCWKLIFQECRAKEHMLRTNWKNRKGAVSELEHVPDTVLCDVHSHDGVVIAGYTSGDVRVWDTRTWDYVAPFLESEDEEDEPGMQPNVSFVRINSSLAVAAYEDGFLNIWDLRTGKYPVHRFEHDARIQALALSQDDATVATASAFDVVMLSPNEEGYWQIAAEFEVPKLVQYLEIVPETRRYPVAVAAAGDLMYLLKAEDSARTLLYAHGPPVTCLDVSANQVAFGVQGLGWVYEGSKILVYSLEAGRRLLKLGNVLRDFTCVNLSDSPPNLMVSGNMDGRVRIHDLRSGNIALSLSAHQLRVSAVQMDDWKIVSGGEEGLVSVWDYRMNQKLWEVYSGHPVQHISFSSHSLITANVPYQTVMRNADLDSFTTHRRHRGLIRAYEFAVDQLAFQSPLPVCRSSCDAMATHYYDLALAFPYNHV

[1] = target: TBC1D3 purified from a baculoviral expression system (human); experiment: pull-down; TBC1D3 adsorbed through a polyclonal anti-TBC1D3 antibody on protein A beads; 35S-methionine-labelled in vitro translated proteins incubated under native conditions; SDS-PAGE and autoradiography; only the target purified

With Flag-TBC1D3 (human) the binding (Myc-Fbw8) was “binds”.

B1: full length SARA (Smad Anchor for Receptor Activation), in vitro translated (protein, UniProt O95405 1-1425)
chain: MENYFQAEAYNLDKVLDEFEQNEDETVSSTLLDTKWNKILDPPSHRLSFNPTLASVNESAVSNESQPQLKVFSLAHSAPLTTEEEDHCANGQDCNLNPEIATMWIDENAVAEDQLIKRNYSWDDQCSAVEVGEKKCGNLACLPDEKNVLVVAVMHNCDKRTLQNDLQDCNNYNSQSLMDAFSCSLDNENRQTDQFSFSINESTEKDMNSEKQMDPLNRPKTEGRSVNHLCPTSSDSLASVCSPSQLKDDGSIGRDPSMSAITSLTVDSVISSQGTDGCPAVKKQENYIPDEDLTGKISSPRTDLGSPNSFSHMSEGILMKKEPAEESTTEESLRSGLPLLLKPDMPNGSGRNNDCERCSDCLVPNEVRADENEGYEHEETLGTTEFLNMTEHFSESQDMTNWKLTKLNEMNDSQVNEEKEKFLQISQPEDTNGDSGGQCVGLADAGLDLKGTCISESEECDFSTVIDTPAANYLSNGCDSYGMQDPGVSFVPKTLPSKEDSVTEEKEIEESKSECYSNIYEQRGNEATEGSGLLLNSTGDLMKKNYLHNFCSQVPSVLGQSSPKVVASLPSISVPFGGARPKQPSNLKLQIPKPLSDHLQNDFPANSGNNTKNKNDILGKAKLGENSATNVCSPSLGNISNVDTNGEHLESYEAEISTRPCLALAPDSPDNDLRAGQFGISARKPFTTLGEVAPVWVPDSQAPNCMKCEARFTFTKRRHHCRACGKVFCASCCSLKCKLLYMDRKEARVCVICHSVLMNAQAWENMMSASSQSPNPNNPAEYCSTIPPLQQAQASGALSSPPPTVMVPVGVLKHPGAEVAQPREQRRVWFADGILPNGEVADAAKLTMNGTSSAGTLAVSHDPVKPVTTSPLPAETDICLFSGSITQVGSPVGSAMNLIPEDGLPPILISTGVKGDYAVEEKPSQISVMQQLEDGGPDPLVFVLNANLLSMVKIVNYVNRKCWCFTTKGMHAVGQSEIVILLQCLPDEKCLPKDIFNHFVQLYRDALAGNVVSNLGHSFFSQSFLGSKEHGGFLYVTSTYQSLQDLVLPTPPYLFGILIQKWETPWAKVFPIRLMLRLGAEYRLYPCPLFSVRFRKPLFGETGHTIMNLLADFRNYQYTLPVVQGLVVDMEVRKTSIKIPSNRYNEMMKAMNKSNEHVLAGGACFNEKADSHLVCVQNDDGNYQTQAISIHNQPRKVTGASFFVFSGALKSSSGYLAKSSIVEDGVMVQITAENMDSLRQALREMKDFTITCGKADAEEPQEHIHIQWVDDDKNVSKGVVSPIDGKSMETITNVKIFHGSEYKANGKVIRWTEVFFLENDDQHNCLSDPADHSRLTEHVAKAFCLALCPHLKLLKEDGMTKLGLRVTLDSDQVGYQAGSNGQPLPSQYMNDLDSALVPVIHGGACQLSEGPVVMELIFYILENIV
modifications: 35S-methionine label
B1 was tested, and the binding [1] was “no binding”.
